This experiment is described as follows: qHTS Assay for Modulators of Lamin A Splicing. The settings on record: HeLa LMNA splicing GFP/RFP minigene ratio, 48 h. In a few lines:
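Read-out is the ratio of GFP to DsRed2 object intensity, acquired by 488 nm laser-scanning cytometry on HeLa lamin A-EGFP minigene reporter cells. Compound incubation 48 hrs at 37 °C in Opti-MEM with 2% FBS; DMSO 0.5% final.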

Where [1] appears, read: measured here: GFP splicing reporter channel.
Setting [2] is: measured here: RFP viability control channel.

We go through 53 compounds from PubChem BioAssay AID1487 (National Center for Advancing Translational Sciences (NCATS), 2009).

The list shows a part of the results. Further columns of the screen follow, without active or inactive calls. The list favours compounds with an active or inconclusive main result. Words in brackets tell the shape of the fitted curve; partial curves, single points and poor fits give uncertain potencies.

In the case of `CCCCC[C@H](O)/C=C/C1=C(CCCCCCC(=O)O)C(=O)CC1`, the AC50 is 0.0447 µM [rising, full curve, poor fit] under setting [1] and 2.51 µM [rising, partial curve] under setting [2].

With `O=[N+]([O-])c1ccc(N2CCN(C(=S)Nc3cccc(F)c3)CC2)cc1`, the concentration at half-maximal activity (AC50) under setting [1] is 5.62 µM [falling, single point]. For `Cc1c(C(=O)NCCC2=CCCCC2)oc2ccc(S(=O)(=O)N3CCOCC3)cc12`, the AC50 under setting [1] was 11.2 µM [rising, partial curve] and the AC50 under setting [2] was 17.8 µM [rising, partial curve, poor fit].

Take `COc1ccc(/C(C)=N\O)cc1OC`: under setting [1], the AC50 is 0.501 µM [rising, full curve, poor fit]. In the case of `CCCSc1ccc2nc(-c3ccccc3)cn2c1`, the AC50 under setting [2] is 35.5 µM [rising, single point]. `COc1cc(/C=C(\C#N)c2nn(CCO)c(N)c2C#N)cc(OC)c1OC`: the AC50 was 35.5 µM [falling, single point] under setting [1] and 1 µM [falling, partial curve, poor fit] under setting [2]. As for `Cc1cccc(-n2c(O)c(C=Nc3ccc4c(c3)OCO4)c3ccccc3c2=O)n1`, the AC50 is 14.1 µM [rising, partial curve] under setting [1] and 12.6 µM [rising, partial curve] under setting [2]. `CCc1ccccc1NC(=S)N=Nc1c(O)n(C)c2ccc(S(=O)(=O)N3CCOCC3)cc12`: the AC50 under setting [1] is 3.16 µM [rising, full curve, poor fit] and the AC50 under setting [2] was 5.62 µM [rising, single point]. Regarding `CCn1c(Cc2ccc(OC)cc2)nnc1SCC(=O)N1CCN(c2ccccc2)CC1`, the AC50 is 20 µM [rising, single point] under setting [1] and 17.8 µM [rising, single point] under setting [2]. `Cc1cc(C)nc(NC(=O)c2c(C(=O)O)noc2C)n1`: the AC50 by setting is: under setting [1], 2.24 µM [falling, full curve, poor fit]; under setting [2], 3.98 µM [falling, full curve, poor fit]. Turning to `CCOC(=O)c1cc2c(=O)n3ccccc3nc2n(CCOC)c1=NC(=O)c1c(-c2c(F)cccc2Cl)noc1C`, the AC50 under setting [2] is 0.00316 µM [falling, full curve, poor fit].

In the case of `COc1ccc(S(=O)(=O)N2CCCCC2)cc1NC(=O)C1CCCO1` (stereo not drawn), the AC50 by setting is: under setting [1], 0.631 µM [falling, partial curve]; under setting [2], 0.251 µM [falling, partial curve]. Take `CCOC(=O)C1(Cc2ccccc2C(F)(F)F)CCN(C2CCC2)CC1`: the AC50 under setting [1] was 20 µM [falling, partial curve, poor fit].

On to `Cc1ccc(-n2ncc3c(NC4CCCCC4)ncnc32)cc1C`, for which the AC50 under setting [1] is 0.141 µM [falling, full curve, poor fit].

`Cc1ccc(C2C(C#N)=C(N)SC(N)=C2C#N)c(C)c1`: the AC50 under setting [1] was 35.5 µM [rising, single point]. Turning to `O=C(CN1CCCC1)N1CCCc2c1c(=O)oc1ccc(OCc3ccccc3)cc21`, the AC50 reads like this: under setting [1], 10 µM [rising, partial curve, poor fit]; under setting [2], 12.6 µM [rising, single point]. Regarding `Cc1onc(-c2c(F)cccc2Cl)c1C(=O)NC1C(=O)N2C1SC(C)(C)C2C(=O)O` (stereo not drawn), the AC50 under setting [2] is 0.112 µM [falling, full curve, poor fit]. With `O=C(O)C1CCCNC1` (stereo not drawn), the AC50 under setting [2] is 14.1 µM [falling, partial curve, poor fit]. `CCc1ncc(C(O)c2cccc(OC)c2OC)n1C` (stereo not drawn): under setting [1], the AC50 is 35.5 µM [rising, single point]. Take `COc1ccc(-c2coc3cc4oc(=O)c5ccccc5c4cc23)cc1F`: under setting [2], the AC50 is 10 µM [rising, partial curve, poor fit]. In the case of `COc1cccc(S(=O)(=O)N2CCN(c3ccccc3F)CC2)c1`, the AC50 under setting [2] was 10 µM [rising, partial curve, poor fit]. On to `CO/N=C/C1CCN(c2ncc(C(F)(F)F)cc2Cl)C1=O` (stereo not drawn), for which the half-maximal activity concentration (AC50) under setting [2] is 0.126 µM [rising, full curve, poor fit].

With `Cc1ccc(C2OCC3(CO)COC(c4ccc(C)cc4)N23)cc1` (stereo not drawn), the AC50 reads like this: under setting [1], 3.16 µM [falling, full curve]; under setting [2], 22.4 µM [falling, single point]. In the case of `COc1ccccc1CN1CCC(CNC(=O)c2cnn(-c3cccc(Cl)c3)c2C2CCN(C(=O)OC(C)(C)C)CC2)CC1`, the AC50 under setting [1] is 20 µM [falling, single point] and the AC50 under setting [2] was 35.5 µM [falling, single point]. For the compound `O=C(C1CC1)N(Cc1ccco1)c1nc(-c2ccccc2)cs1`, under setting [2], the AC50 was 35.5 µM [rising, single point]. Same read-out and setting: for `Cc1nc2c(C)cccc2cc1C(=O)N/N=C/c1cccnc1` the value was 10 µM [rising, partial curve, poor fit]. For the compound `O=C(CCNS(=O)(=O)c1ccc2c(c1)CCN2C(=O)C1CC1)Nc1ccc(Cl)cc1`, the AC50 under setting [1] is 0.891 µM [falling, full curve, poor fit].

On to `CCCCN(Cc1ccco1)C(=O)c1cc2c(=O)[nH]c3ccc(C)cc3c2s1`, for which the AC50 was 11.2 µM [rising, partial curve, poor fit] under setting [1] and 12.6 µM [rising, single point] under setting [2]. Consider `O=S(=O)(c1ccccc1)N1CCN(C(=S)Nc2ccc(F)cc2)CC1`, for which the AC50 under setting [2] was 6.31 µM [rising, partial curve, poor fit]. In the case of `O=C1Nc2ccccc2/C1=C\c1cccn1-c1ccc(OC(F)(F)F)cc1`, the AC50 is, setting by setting: under setting [1], 11.2 µM [rising, partial curve, poor fit]; under setting [2], 12.6 µM [rising, partial curve, poor fit]. In the case of `C[C@@]12CCC(=O)C=C1CC[C@H]1[C@H]3CC[C@](O)(C(=O)CO)[C@]3(C)CC(=O)[C@@H]12`, the AC50 runs as follows: under setting [1], 0.501 µM [falling, full curve]; under setting [2], 0.562 µM [falling, full curve]. Take `COc1ccc(N2CCN(C(=O)c3noc4c3CCCCC4)CC2)cc1`: the AC50 is, setting by setting: under setting [1], 11.2 µM [falling, partial curve]; under setting [2], 0.00224 µM [falling, full curve]. `Cc1cccc(Cc2cnc(N3C(=N)SC(c4ccccc4)C3=O)s2)c1` (stereo not drawn): the AC50 by setting is: under setting [1], 35.5 µM [rising, single point]; under setting [2], 35.5 µM [rising, single point]. For the compound `O=C(Nc1cccnc1)c1ccc(N2CCCC2)c([N+](=O)[O-])c1`, the AC50 under setting [1] is 7.94 µM [rising, partial curve, poor fit].

Take `CCCCCC(C)NC(=S)NC(=O)c1cc(S(=O)(=O)N2CCOCC2)ccc1C` (stereo not drawn): under setting [2], the AC50 was 17.8 µM [rising, partial curve, poor fit].

Regarding `CC(=O)c1ccc(NC(=O)c2sc(-n3nc(C)c(Cc4ccc5c(c4)OCO5)c3C)nc2C)cc1`, the AC50 was 11.2 µM [falling, partial curve, poor fit] under setting [1] and 15.8 µM [falling, partial curve] under setting [2].

With `CCC1CCCCN1CCCNC(=O)c1ccc2c(c1)N(Cc1cccc(Cl)c1)C(=O)c1ccccc1S2(=O)=O` (stereo not drawn), under setting [1], the AC50 is 0.178 µM [rising, full curve, poor fit]. The same measure, in the same setting: as for `Cc1ccc(C)n1C1CCS(=O)(=O)C1` (stereo not drawn), the figure is 5.01 µM [falling, partial curve, poor fit]. `COc1ccc(O)c(/C=N/NC(=S)Nc2cccc(S(=O)(=O)N(C)C)c2)c1`: the AC50 reads like this: under setting [1], 3.16 µM [rising, single point]; under setting [2], 6.31 µM [rising, full curve]. As to `Cc1ccccc1N1C(=O)c2cccc([N+](=O)[O-])c2C1=O`, under setting [2], the AC50 is 2.24 µM [falling, partial curve]. `COc1cc2c3c(c1)C1(C(=O)N3C(C)(C)C=C2C)C(C#N)=C(N)Oc2cc(O)ccc21` (stereo not drawn): the half-maximal activity concentration (AC50) under setting [1] was 4.47 µM [rising, partial curve, poor fit].

Regarding `Cc1ccc([N+](=O)[O-])cc1-c1[nH]c(-c2ccc(O)c(O)c2)nc1-c1ccccc1`, the AC50 under setting [1] is 35.5 µM [rising, single point].

For `CC(=O)Nc1nc2ccccc2n1CCOc1ccccc1Cl`, the half-maximal activity concentration (AC50) under setting [2] was 14.1 µM [rising, single point].

`O=C(COc1ccccc1)Nc1nc(-c2cccs2)cs1`: the AC50 under setting [2] was 35.5 µM [rising, single point]. On to `c1ccc(-c2noc(CSc3nnc(Cc4cccs4)n3-c3ccccc3)n2)cc1`, for which the AC50 under setting [2] was 35.5 µM [rising, single point]. On the same count and under the same terms, for `COCCn1c(SCC(=O)NNC(=O)Cc2ccccc2)nc2ccccc2c1=O` the value was 4.47 µM [rising, full curve, poor fit]. Take `CC(C)N(C(=O)CSc1nnc(NC(=O)Cc2cccs2)s1)C(C)C`: the AC50 under setting [1] was 2.82 µM [falling, partial curve]. For `Cc1c(NC(=O)c2c(N)sc3c2CCCC3)c(=O)n(-c2ccccc2)n1C`, under setting [1], the AC50 was 5.01 µM [rising, single point]. As to `COc1ccc(C2CC(=O)Nc3c2c(C)nn3-c2nc(C)cc(C)n2)c(OC)c1OC` (stereo not drawn), under setting [2], the AC50 is 0.02 µM [falling, full curve, poor fit].

As for `CCCCc1cc2ccccc2c(OCCN(C)C)n1`, the AC50 under setting [2] is 0.0794 µM [rising, full curve, poor fit]. Turning to `COc1ccccc1N1CCN(S(=O)(=O)c2ccc(Cl)s2)CC1`, the AC50 under setting [2] is 20 µM [rising, single point]. Regarding `COc1ccc(OC)c(NC(=O)c2nnn(CC(=O)Nc3ccc(C(C)C)cc3)c2N)c1`, the AC50 under setting [1] is 35.5 µM [falling, single point] and the AC50 under setting [2] is 25.1 µM [falling, partial curve].

On to `COc1ccc(CCNC(=O)c2ccc3nc(CCc4ccccc4)oc3c2)cc1OC`, for which the AC50 was 2.51 µM [falling, full curve, poor fit] under setting [1] and 2.82 µM [falling, partial curve, poor fit] under setting [2].
